# Experimental data reported in patent US20110189169A1, “COMBINATION OF HGF INHIBITOR AND PTEN AGONIST TO TREAT CANCER” (GALAXY BIOTECH, LLC, priority 2008, published 2011).
# For at least one compound, name, drawing or mass did not settle the structure.
# Key:
# [1] = test system: A172 cells; assay: Growth curves (cell counting), A172 cells; assay type: cell-based, Human; settings: 0.1% FBS medium, 40 nM rapamycin and/or 20 μg/mL L2G7, counted daily for five days
# [2] = test system: Wild-type U87 glioblastoma cells; assay: Intracranial wild-type U87 glioblastoma xenograft, tumor cross-sectional area; assay type: in vivo, immunodeficient mice; settings: i.p. L2G7 100 μg twice per week, rapamycin 40 μg three times per week, or both, for 2 weeks; P<0.05
# [3] = test system: U87 cells; assay: Growth curves (cell counting), U87 cells; assay type: cell-based, Human; settings: 0.1% FBS medium, 40 nM rapamycin and/or 20 μg/mL L2G7, counted daily for five days
structure (smiles),measurement,setting,value
CO[C@H]1C[C@@H]2CC[C@@H](C)[C@@](O)(O2)C(=O)C(=O)N2CCCC[C@H]2C(=O)O[C@H]([C@H](C)C[C@@H]2CC[C@@H](O)[C@H](OC)C2)CC(=O)[C@H](C)/C=C(\C)[C@@H](O)[C@@H](OC)C(=O)[C@H](C)C[C@H](C)/C=C/C=C/C=C/1C [rapamycin],cell proliferation,[1],significantly inhibited cell proliferation relative to control
same,tumor growth (tumor cross-sectional areas),[2],significantly inhibited tumor growth relative to control
same,cell proliferation,[3],significantly inhibited cell proliferation relative to control
